The record followed here is paper PMC3387237.

Amino acid sequences for entries named in this document (tags omitted). A change or cut given only in a name is not applied to a line headed by its entry.
UniProt P28063: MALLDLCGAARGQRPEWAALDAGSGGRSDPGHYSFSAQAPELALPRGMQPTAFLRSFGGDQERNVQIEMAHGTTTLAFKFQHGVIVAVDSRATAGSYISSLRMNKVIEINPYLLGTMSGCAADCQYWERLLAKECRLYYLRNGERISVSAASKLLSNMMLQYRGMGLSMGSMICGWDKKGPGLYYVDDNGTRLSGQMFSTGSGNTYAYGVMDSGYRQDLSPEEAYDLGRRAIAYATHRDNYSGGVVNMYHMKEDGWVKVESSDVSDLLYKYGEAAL
UniProt O55234: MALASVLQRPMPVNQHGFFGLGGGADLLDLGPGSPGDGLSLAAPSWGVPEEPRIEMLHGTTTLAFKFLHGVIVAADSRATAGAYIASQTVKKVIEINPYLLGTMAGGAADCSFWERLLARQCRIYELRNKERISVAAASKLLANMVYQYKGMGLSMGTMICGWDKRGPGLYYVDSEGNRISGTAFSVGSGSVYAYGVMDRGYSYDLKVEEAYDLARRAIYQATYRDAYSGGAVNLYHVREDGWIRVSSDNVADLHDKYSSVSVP

In assay [1] the target is Flag-tagged full-length LMP7 (mouse) (UniProt P28063). As to the kind of experiment: co-IP; lysates (600 µg protein) of retrovirally transduced lmp7−/− Mefs, unstimulated or IFNγ for 4 days; anti-Flag M2 affinity gel, 4°C over night; 50 mM TrisHCl pH 7.4, 150 mM NaCl, 1 mM EDTA, 0.5% Igepal; washed with TBS; input, supernatant and precipitate read by two-colour fluorescent immunoblot. (A western blot detects proteins with antibodies after separation by electrophoresis.)

Assay [2] has as its target Flag-tagged full-length β5 (mouse) (UniProt O55234). As to the kind of experiment: co-IP; β5-Flag over-expressed in wild type Mefs (endogenous LMP7 present), IFNγ stimulation; anti-Flag precipitation, immunoblot (Fig. S1B).
Assay [3] shares this target. Briefly: co-IP; lysates (600 µg protein) of retrovirally transduced lmp7−/− Mefs, unstimulated or IFNγ for 4 days; anti-Flag M2 affinity gel, 4°C over night; 50 mM TrisHCl pH 7.4, 150 mM NaCl, 1 mM EDTA, 0.5% Igepal; washed with TBS; input, supernatant and precipitate read by two-colour fluorescent immunoblot.

No constants are given. Whether binding was seen depends on the method and setting. Binding seen in cells or lysates may run through a third protein. Binding calls can cover weak binding; strength is not graded here.

B1: MECL-1 (protein, UniProt O35955 40-273)
chain: TTIAGLVFRDGVILGADTRATNDSVVADKSCEKIHFIAPKIYCCGAGVAADTEMTTRMAASKMELHALSTGREPRVATVTRILRQTLFRYQGHVGASLVVGGVDLNGPQLYEVHPHGSYSRLPFTALGSGQGAAVALLEDRFQPNMTLEAAQELLVEAITAGILSDLGSGGNVDACVITAGGAKLQRALSTPTEPVQRAGRYRFAPGTTPVLTREVRPLTLELLEETVQAMEVE
Take B1: in assay [1], the binding result was “binds”.

B2: proteasome subunit β2 (protein, UniProt P70195 44-277)
chain: TTIAGVVYKDGIVLGADTRATEGMVVADKNCSKIHFISPNIYCCGAGTAADTDMTTQLISSNLELHSLTTGRLPRVVTANRMLKQMLFRYQGYIGAALVLGGVDVTGPHLYSIYPHGSTDKLPYVTMGSGSLAAMAVFEDKFRPDMEEEEAKKLVSEAIAAGIFNDLGSGSNIDLCVISKSKLDFLRPFSVPNKKGTRLGRYRCEKGTTAVLTEKVTPLEIEVLEETVQTMDTS
As for B2, the binding entry in assay [2] and in assay [3] was “binds” in each case.

B3: LMP2 (protein, UniProt P28076 21-219)
chain: TTIMAVEFDGGVVVGSDSRVSAGTAVVNRVFDKLSPLHQRIFCALSGSAADAQAIADMAAYQLELHGLELEEPPLVLAAANVVKNISYKYREDLLAHLIVAGWDQREGGQVYGTMGGMLIRQPFTIGGSGSSYIYGYVDAAYKPGMTPEECRRFTTNAITLAMNRDGSSGGVIYLVTITAAGVDHRVILGDELPKFYDE
For B3, the binding result in assay [1] is on record as “binds”.
